Measurements reported in doi:10.1101/2020.09.21.305680.
No constants are given. Whether binding was seen depends on the method and setting. Some entries that bind do so weakly or less than the wild type.

T1: Sld3 (S. cerevisiae) (UniProt P53135)
T1 sequence: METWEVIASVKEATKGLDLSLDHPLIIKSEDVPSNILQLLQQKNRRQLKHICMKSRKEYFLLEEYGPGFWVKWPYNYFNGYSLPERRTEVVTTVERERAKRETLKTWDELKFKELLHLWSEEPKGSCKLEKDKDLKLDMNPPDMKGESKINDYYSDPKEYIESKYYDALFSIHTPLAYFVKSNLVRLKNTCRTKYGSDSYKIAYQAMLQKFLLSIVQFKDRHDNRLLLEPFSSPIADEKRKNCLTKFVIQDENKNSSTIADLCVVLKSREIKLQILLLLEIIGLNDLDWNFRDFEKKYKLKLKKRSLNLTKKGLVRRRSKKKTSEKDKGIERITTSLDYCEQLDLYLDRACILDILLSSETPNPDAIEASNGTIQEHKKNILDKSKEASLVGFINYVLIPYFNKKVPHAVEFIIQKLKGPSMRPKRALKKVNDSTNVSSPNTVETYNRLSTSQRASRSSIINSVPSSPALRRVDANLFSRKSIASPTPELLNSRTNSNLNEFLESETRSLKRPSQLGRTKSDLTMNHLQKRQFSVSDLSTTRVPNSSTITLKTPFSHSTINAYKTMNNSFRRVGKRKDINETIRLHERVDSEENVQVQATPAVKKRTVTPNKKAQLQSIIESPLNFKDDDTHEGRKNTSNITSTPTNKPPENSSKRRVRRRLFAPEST

T2: Sld3^Esa1(-)-3 (S. cerevisiae) (UniProt P53135)
T2 sequence: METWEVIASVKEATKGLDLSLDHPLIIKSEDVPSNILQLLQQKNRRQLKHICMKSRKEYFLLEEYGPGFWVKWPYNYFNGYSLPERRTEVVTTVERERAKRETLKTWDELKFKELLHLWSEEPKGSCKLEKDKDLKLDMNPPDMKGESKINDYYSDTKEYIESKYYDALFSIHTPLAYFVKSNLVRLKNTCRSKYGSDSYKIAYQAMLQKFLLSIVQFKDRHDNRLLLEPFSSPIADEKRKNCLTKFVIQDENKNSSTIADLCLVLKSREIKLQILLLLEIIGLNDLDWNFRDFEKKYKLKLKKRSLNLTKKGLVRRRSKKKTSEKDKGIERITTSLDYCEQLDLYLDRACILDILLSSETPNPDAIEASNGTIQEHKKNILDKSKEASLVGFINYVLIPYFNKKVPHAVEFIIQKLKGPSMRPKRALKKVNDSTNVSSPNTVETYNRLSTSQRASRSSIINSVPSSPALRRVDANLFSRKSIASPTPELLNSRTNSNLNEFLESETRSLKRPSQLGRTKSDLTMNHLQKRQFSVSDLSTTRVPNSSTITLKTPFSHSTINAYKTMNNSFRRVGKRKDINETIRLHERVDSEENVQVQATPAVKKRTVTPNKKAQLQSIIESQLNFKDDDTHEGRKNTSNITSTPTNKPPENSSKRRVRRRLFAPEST


Tests used:
[1] = target: T1, Sld3 (S. cerevisiae); assay: two-hybrid
[2] = target: T2, Sld3^Esa1(-)-3 (S. cerevisiae); assay: two-hybrid

binding [1]	binding [2]	Binder
binds	binds	Orc2 (protein, UniProt P32833 1-620) MLNGEDFVEHNDILSSPAKSRNVTPKRVDPHGERQLRRIHSSKKNLLERISLVGNERKNTSPDPALKPKTPSKAPRKRGRPRKIQEELTDRIKKDEKDTISSKKKRKLDKDTSGNVNEESKTSNNKQVMEKTGIKEKREREKIQVATTTYEDNVTPQTDDNFVSNSPEPPEPATPSKKSLTTNHDFTSPLKQIIMNNLKEYKDSTSPGKLTLSRNFTPTPVPKNKKLYQTSETKSASSFLDTFEGYFDQRKIVRTNAKSRHTMSMAPDVTREEFSLVSNFFNENFQKRPRQKLFEIQKKMFPQYWFELTQGFSLLFYGVGSKRNFLEEFAIDYLSPKIAYSQLAYENELQQNKPVNSIPCLILNGYNPSCNYRDVFKEITDLLVPAELTRSETKYWGNHVILQIQKMIDFYKNQPLDIKLILVVHNLDGPSIRKNTFQTMLSFLSVIRQIAIVASTDHIYAPLLWDNMKAQNYNFVFHDISNFEPSTVESTFQDVMKMGKSDTSSGAEGAKYVLQSLTVNSKKMYKLLIETQMQNMGNLSANTGPKRGTQRTGVELKLFNHLCAADFIASNEIALRSMLREFIEHKMANITKNNSGMEIIWVPYTYAELEKLLKTVLNTL
no binding	–	Eaf5 (protein, UniProt P39995 1-279) MDKEVSELVVLQLIHTLISNKNEELVRNGGGINMIGNNLRISLVKLTNEIQNNLLINELTNLRRQSNVANGNRKLGINDILTIVKNLFPEYRTTLNDGQLSLHGLEMHDIEKLLDEKYDRFKKTQVEQIRMMEDEILKNGIKTGASQLQPHANAGKSGSAGTSATITTTTPHMAHSMDPKREKLLKLYRDTVLNKLESKTGNFQKLFKSPDGSIIKNEINYEDIKNETPGSVHELQLILQKSITDGVMRKVIGTDDWKLARQVQFELDDTVQFMRRALE
no binding	–	Eaf6 (protein, UniProt P47128 1-113) MTDELKSYEALKAELKKSLQDRREQEDTFDNLQQEIYDKETEYFSHNSNNNHSGHGGAHGSKSHYSGNIIKGFDTFSKSHHSHADSAFNNNDRIFSLSSATYVKQQHGQSQND
binds	–	Esa1 (aa 147–445) (domain or fragment, UniProt Q08649 147-445) KLRTSGSMTQNPHEVARVRNLNRIIMGKYEIEPWYFSPYPIELTDEDFIYIDDFTLQYFGSKKQYERYRKKCTLRHPPGNEIYRDDYVSFFEIDGRKQRTWCRNLCLLSKLFLDHKTLYYDVDPFLFYCMTRRDELGHHLVGYFSKEKESADGYNVACILTLPQYQRMGYGKLLIEFSYELSKKENKVGSPEKPLSDLGLLSYRAYWSDTLITLLVEHQKEITIDEISSMTSMTTTDILHTAKTLNILRYYKGQHIIFLNEDILDRYNRLKAKKRRTIDPNRLIWKPPVFTASQLRFAW
binds	binds	Dpb11 (protein, UniProt P47027 1-764) MKPFQGITFCPTAINNEILAKKISKKIIKLGGIFSKDLTRQVNVLVVGSTTNTNKFKFAVKHRFDIIFIDIQAIDDIYQLWLSGENILPDSNTATMTGSTYEMLKILYRRFSFKYLHNFNIFIGRITDTNITSIDSLVRSIKKLGCSSYNYQNFVIKDTSSHNDDDDQGQNGQISIFVTDTLLGARVNAAIEQNIPIVHFKWILDCQKRSALLPYDPYYLLPNIKDLPYDSIGSNSCDCWDKINTTFPTNIDAQSSLQRQQSSSTLTPSLPKTSSLLNKFKPKGEKIWDKAMSLQQHSKTNFSVLGQSPLSINNKQEDLSDNSTLIFKNCAFIIHHIFPGNHRSILTKIVVQNGGKIETSYLSGIYDHSYYIIPSNKALDSFNDLPEIIDDNDGIVTEFFIERCLYYQKLLHPIDLWSKPFLSTIEFQVSSSSKLLHHEFSSSPFLNVTITGFSGVELLHLTKVLNLLKPMGINYVEYLNKSTDILLINLAALPSIPKTHPLWSNEFSDLFTQFCINNNNDDPGDNNRKDFQNNSILRNSMKRKIEYIKKFHSIPVVTPAFIFKLLSAASGENNEIFLNNIKWCIICPRGHKDDFKCKIKKPYYTSISSEKKYQNNDPKIDKTILLKRNNSSLSEHSMKDTKNELLQKIRETDSGRKKRSVSSSIMDVSSERQMPDTKRIKLESLPKNFVPKQIKRTTSWGTIMSENVPTEQPTAISNPEEIPRTEEVSHTQVTYGSIQDKKRTASLEKPMRRQTRNQTKELDS
